Reference: the supplement of paper PMC3334620
The full ranking holds about 33,000 sequences; the median of “E-score (-0.5 to 0.5)” is about -0.0034, and the highest 2% start at about 0.25. Some of the results follow.

What follows are sequences tested against T1, Yap3 (UniProt P38749) (assay: PBM E-score (8-mer binding enrichment) (E-score (-0.5 to 0.5)); higher = stronger / more preferred TF binding). Conditions: protein concentration: 100 nM; construct: GST-full length.
T1 sequence: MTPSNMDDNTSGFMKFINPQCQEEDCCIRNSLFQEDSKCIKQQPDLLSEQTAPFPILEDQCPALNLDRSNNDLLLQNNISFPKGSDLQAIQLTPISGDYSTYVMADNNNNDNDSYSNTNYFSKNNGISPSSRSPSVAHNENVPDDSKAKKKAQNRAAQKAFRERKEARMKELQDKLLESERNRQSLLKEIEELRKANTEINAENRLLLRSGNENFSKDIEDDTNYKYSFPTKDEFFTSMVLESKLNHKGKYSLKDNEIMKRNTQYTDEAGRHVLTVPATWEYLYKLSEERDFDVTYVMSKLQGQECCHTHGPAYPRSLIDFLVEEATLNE
Procedure: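 Universal 'all 10-mer' protein binding microarrays (Agilent AMADID 015681) probed with GST-tagged S. cerevisiae TFs (full-length or DBD) made by in vitro transcription/translation (PURExpress), about 100-200 nM. Bound TF was detected with fluorescent anti-GST. Each ungapped 8-mer (which stands for itself and its reverse complement) is scored by the PBM enrichment score (E-score), a modified Wilcoxon-Mann-Whitney statistic from -0.5 to +0.5, computed with the Universal PBM Analysis Suite. Scale: above 0.35 generally sequence-specific binding.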

| Sequence | PBM E-score |
| --- | --- |
| GAATAGTC | 0.0146 |
| GACTCGGC | -0.274 |
| AGTACGCG | 0.0906 |
| GCGTAATA | 0.305 |
| CATGAGGA | 0.135 |
| CCCCACGA | -0.103 |
| GACATTAA | 0.136 |
| TCCACGAA | 0.108 |
| ACAATGAT | 0.2 |
| GTGAGGAA | -0.176 |
| CGTGAAAC | 0.0367 |
| ACGCAAAT | -0.00525 |
| TACAGCTA | -0.115 |
| CGACTTGC | -0.0489 |
| AAACGAGT | 0.217 |
| AGTTTCAA | 0.0153 |
| CTCAATGC | -0.105 |
| ATGTTGAA | 0.227 |
| AACGATGC | -0.0793 |
| CCGTGCCC | -0.265 |
| AGCTCCTC | -0.229 |
| ATGATTAC | 0.13 |
| AATAACCA | 0.0989 |
| AATACAAC | 0.147 |
| GAGGAATC | -0.116 |

| Sequence | PBM E-score |
| --- | --- |
| CTTACCAC | -0.0571 |
| TAGATATA | 0.232 |
| ACATTCAG | -0.113 |
| AAATAAAA | 0.224 |
| AGCCAGTA | 0.00092 |
| AGACAGCG | -0.154 |
| GTCGGTAA | -0.0626 |
| GTTGCGAA | 0.0488 |
| TCGGGCAA | 0.0211 |
| GGGTTTAA | 0.0196 |
| AGTCGGCC | 0.0134 |
| ATATAAAC | 0.247 |
| CGCACGGC | -0.0879 |
| CAGGACCG | -0.0673 |
| AAATGATC | -0.129 |
| CGGGCTCC | -0.276 |
| CTACAGGA | 0.11 |
| AGGAAACT | 0.0102 |
| ATTCCATC | -0.00318 |
| ACCCTATA | -0.084 |
| CTTATCAC | -0.0604 |
| GGATGCGA | -0.203 |
| GGCCTTAC | -0.144 |
| AAAGATAA | 0.245 |
| CGGGCGGA | -0.142 |

| Sequence | PBM E-score |
| --- | --- |
| CGGGACTA | -0.184 |
| AAAATATG | 0.256 |
| GAAACGAA | 0.255 |
| CTCACGTC | 0.055 |
| CGAAGGGC | -0.221 |
| CCACATGA | 0.0785 |
| GAAGTGAC | -0.073 |
| CCCAATTA | 0.164 |
| ACAGGATC | -0.172 |
| GCCAATTA | 0.193 |
| ACGTTTAG | -0.0721 |
| ATGCTTCG | -0.049 |
| CGTGTGTC | -0.0533 |
| ATAGTCAG | 0.0953 |
| CAAACGCG | 0.15 |
| GGGCTTCA | -0.258 |
| ATGCAAAG | 0.0802 |
| AATTAACG | 0.0243 |
| GCGTTAGA | 0.0241 |
| ATTACCTC | 0.0186 |
| AACGCGAC | -0.0182 |
| TCACGAGA | -0.0954 |
| CACTCCTG | -0.0967 |
| ACTGAAGC | -0.127 |
| ACAATAAT | 0.206 |

| Sequence | PBM E-score |
| --- | --- |
| CGACCTCG | -0.00605 |
| AGCCGCAA | -0.151 |
| CCGCTTTC | -0.15 |
| GCACCAGA | -0.181 |
| GTCTAGAA | -0.0513 |
| TATTTAGA | 0.211 |
| CTGAAGGC | -0.267 |
| CATCCCCG | -0.00703 |
| CAAAATTC | 0.168 |
| ACCCGGAA | 0.0401 |
| AAAGCCCA | -0.0381 |
| GAAAGTCA | 0.153 |
| AAGAATTA | 0.172 |
| ATGATAGC | 0.138 |
| CCCGAAAC | 0.0241 |
| ACGTATAT | 0.111 |
| TGCCGACA | 0.0236 |
| CCATTGTA | 0.138 |
| TACAAGCA | 0.17 |
| AATGCACT | 0.119 |
| TGATGCAA | 0.00044 |
| GACAAACA | 0.121 |
| ATCTGGTC | 0.11 |
| AATAATGA | 0.0556 |
| GAAAATGA | 0.146 |

| Sequence | PBM E-score |
| --- | --- |
| ATGCGAAT | 0.0303 |
| TCTAAAGA | 0.188 |
| CCTTAGCC | -0.0133 |
| CGCGAGGC | 0.0882 |
| AATAGATC | 0.08 |
| ACTCCGGA | 0.114 |
| CCAGTCAA | 0.00581 |
| AACGGATA | 0.255 |
| AACCTTAT | 0.0462 |
| ACGGGCAC | -0.131 |
| AGTCCACT | -0.124 |
| AAGAAGGT | -0.0308 |
| AAAAGTCC | 0.0841 |
| CTACCGCC | -0.089 |
| CTGCCAAA | 0.0344 |
| CGATTCTA | -0.0732 |
| AAGTCATC | -0.0947 |
| AGAAGGCC | -0.206 |
| AAGAACGG | 0.0183 |
| GAATGCAA | 0.0622 |
| ACCGGTAC | -0.261 |
| AGACCAAG | 0.099 |
| AGATAGGG | -0.116 |
| CGATAAGC | -0.0233 |
| TGGAGGAA | -0.114 |

| Sequence | PBM E-score |
| --- | --- |
| GGTTCATA | 0.0305 |
| CCCCCCGG | -0.5 |
| AATCAAAC | 0.208 |
| GGAAGTTA | 0.0744 |
| ATTTCCCA | 0.239 |
| ATAACACG | 0.137 |
| AGGCATCC | -0.262 |
| GTTGCTAA | 0.251 |
| CGATCTAC | 0.0301 |
| CCCTGTGA | -0.246 |
| CGAACAGC | -0.214 |
| CCTGTTAC | 0.187 |
| CTGTGAAG | -0.00245 |
| AGATCACA | 0.0306 |
| AGGCAGAA | -0.0515 |
| CCCGAAAG | -0.0267 |
| CATGTGGC | 0.0138 |
| AAGGCTAT | -0.114 |
| ATTGCAAG | 0.0639 |
| GGCGCGCC | 0.0405 |
| ACTACAAT | 0.182 |
| AGAGATCC | -0.00859 |
| CCACTTAC | 0.257 |
| CTAGCCGC | -0.00419 |
| ACACGAGT | 0.168 |

7 entries picked at random from those above, as already listed:

| Sequence | PBM E-score |
| --- | --- |
| GTTGCTAA | 0.251 |
| ATTGCAAG | 0.0639 |
| CTAGCCGC | -0.00419 |
| CCACTTAC | 0.257 |
| GGAAGTTA | 0.0744 |
| AGATCACA | 0.0306 |
| CGAACAGC | -0.214 |

Next part

| Sequence | PBM E-score |
| --- | --- |
| AGAGCAAG | 0.171 |
| CGGAATTA | 0.187 |
| CGTCCATA | 0.076 |
| GCGGTATA | 0.0717 |
| GGCCACCA | -0.0476 |
| AAAGGGGG | -0.272 |
| TTGACAAA | 0.219 |
| ACCTGATA | 0.195 |
| CCCGTTCA | -0.106 |
| CTATATAC | 0.367 |
| CCAACAGG | -0.153 |
| ACGATCCC | -0.305 |
| CCAAGCGG | -0.262 |
| GTGGCTAA | 0.0934 |
| ACAATCGT | -0.0198 |
| GGTACTAA | 0.0733 |
| GGGTTACC | -0.0994 |
| AACAGATC | 0.18 |
| ACGCGCCC | -0.0778 |
| GTTGGCTA | 0.12 |
| CCAGTCCG | -0.267 |
| CCATTATC | 0.103 |
